Data taken from ChEMBL document CHEMBL3988442, “University of Dundee, Small-Polar-MMV Screening Library” (2021).

Chains of the proteins cited; added tags and fusions are not shown. Residues count along the entry.
UniProt A4I591, 1-473: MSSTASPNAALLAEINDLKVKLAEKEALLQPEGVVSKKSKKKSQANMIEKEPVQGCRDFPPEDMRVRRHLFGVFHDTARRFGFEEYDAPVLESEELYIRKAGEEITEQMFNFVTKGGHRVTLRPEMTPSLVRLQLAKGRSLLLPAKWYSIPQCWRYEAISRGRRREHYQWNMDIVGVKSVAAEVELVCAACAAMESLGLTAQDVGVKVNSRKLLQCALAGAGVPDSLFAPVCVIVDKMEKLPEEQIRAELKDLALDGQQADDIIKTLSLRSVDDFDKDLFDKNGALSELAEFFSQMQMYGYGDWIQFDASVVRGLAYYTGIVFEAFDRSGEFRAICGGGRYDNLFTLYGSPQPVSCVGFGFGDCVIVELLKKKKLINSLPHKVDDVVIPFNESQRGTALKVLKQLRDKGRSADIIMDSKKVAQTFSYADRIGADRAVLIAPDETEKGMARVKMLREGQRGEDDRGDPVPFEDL
UniProt P9WPC5, whole entry: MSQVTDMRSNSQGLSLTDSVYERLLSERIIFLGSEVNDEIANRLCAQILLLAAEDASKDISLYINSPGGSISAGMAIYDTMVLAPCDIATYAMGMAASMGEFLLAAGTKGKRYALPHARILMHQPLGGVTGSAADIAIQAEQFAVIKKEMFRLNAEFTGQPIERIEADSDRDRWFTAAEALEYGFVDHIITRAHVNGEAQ
UniProt P9WPC3, whole entry partner: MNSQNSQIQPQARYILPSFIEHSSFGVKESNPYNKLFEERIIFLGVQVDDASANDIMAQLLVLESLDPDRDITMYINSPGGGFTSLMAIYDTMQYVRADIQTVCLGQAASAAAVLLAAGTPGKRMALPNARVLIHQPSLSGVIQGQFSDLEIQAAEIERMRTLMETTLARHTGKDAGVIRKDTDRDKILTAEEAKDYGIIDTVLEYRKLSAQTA
UniProt Q4DA54, 1-478: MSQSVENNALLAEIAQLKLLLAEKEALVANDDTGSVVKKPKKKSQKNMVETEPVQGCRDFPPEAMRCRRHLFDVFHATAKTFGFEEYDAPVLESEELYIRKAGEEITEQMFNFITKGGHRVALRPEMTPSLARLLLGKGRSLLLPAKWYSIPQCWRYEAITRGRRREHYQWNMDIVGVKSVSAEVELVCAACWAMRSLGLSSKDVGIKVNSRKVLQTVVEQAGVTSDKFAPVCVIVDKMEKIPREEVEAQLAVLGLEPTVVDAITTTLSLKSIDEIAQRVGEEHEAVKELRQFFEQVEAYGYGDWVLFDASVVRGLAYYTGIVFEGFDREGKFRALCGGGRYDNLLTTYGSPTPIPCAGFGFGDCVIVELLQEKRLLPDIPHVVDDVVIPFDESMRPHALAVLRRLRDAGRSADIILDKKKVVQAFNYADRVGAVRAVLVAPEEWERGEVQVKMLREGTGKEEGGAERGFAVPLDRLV

Values are the deposited “Percent Effect”, in %. The controls that fix the scale are not given in the record; negative values are as filed. Compounds were drawn at random from those tested, without regard to their results.

Toxoplasma: 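Assay of Toxoplasma gondii numbers, read through their beta-galactosidase reporter with a colour substrate. Compounds at 10 µM. The record gives no direction; the compounds picked for IC50 retests had high values, so higher reads as fewer parasites. Of about 67,000 compounds tested this way, about 260 (0.38%) reached 50% or more in at least one test.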
T. brucei: 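Whole-parasite assay of Trypanosoma brucei over 72 hours; the read-out is not stated. Compounds at 30 µM. The record gives no direction; compounds that gave an IC50 in retests scored well above the rest, so higher reads as stronger inhibition. Values scatter widely below zero; nearly all retest evidence comes from the higher of the two concentrations used. Of about 64,000 compounds tested this way, about 940 (1.5%) reached 50% or more in at least one test.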
LiHisRS: 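Enzyme assay of histidyl-tRNA synthetase; the read-out is not stated. Target: Histidine-tRNA ligase, Leishmania infantum (UniProt A4I591). Concentration: 30 µM. Direction is inferred from retests: higher values go with stronger inhibition. The assay is labelled LdHisRS but filed under L. infantum. Size under these conditions: about 69,000 compounds, about 410 of them at 50% or above in at least one test.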
ClpP1P2: 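ClpP1P2, Mycobacterium tuberculosis (UniProt P9WPC5 and UniProt P9WPC3). Protease assay of ClpP1P2, read by the AMC dye that it sets free. Tested at 50 µM. Direction is inferred from only a few compounds that gave an IC50; most scored high, so higher reads as stronger inhibition. Most other retested compounds had strongly negative values. Size under these conditions: about 69,000 compounds, about 10 of them at 50% or above in at least one test.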
TcHisRS: 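Histidine-tRNA ligase, Trypanosoma cruzi CL Brener (UniProt Q4DA54). Enzyme assay of histidyl-tRNA synthetase; the read-out is not stated. Tested at 30 µM. Higher reads as stronger inhibition (inferred: compounds with an IC50 in retests scored well above the rest). Size under these conditions: about 69,000 compounds, about 31 of them at 50% or above in at least one test.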

With CC(C)(N)C(=O)N1CCCC(C(=O)c2ccc(C(C)(C)C)cc2)C1 (centres undefined) the screen gave Toxoplasma: 7.632%; T. brucei: 89.7%; LiHisRS: 15.93%; ClpP1P2: -3.858%; TcHisRS: 6.25%.
With CO[C@@H]1CCN(Cc2nccn2C)[C@H]1Cc1cccnc1.O=C(O)C(F)(F)F.O=C(O)C(F)(F)F the screen gave Toxoplasma: 1.171%; T. brucei: -10.12%.
With O=C(O)C(F)(F)F.O=C(O)C(F)(F)F.[H][C@@]12CCCO[C@]1([H])[C@H](N(C)C)CN(Cc1ccco1)C2 the screen gave Toxoplasma: -13.31%; T. brucei: -1.452%.
With COCCCN1CCCC12CCN(c1ncccn1)CC2.O=C(O)C(F)(F)F the screen gave Toxoplasma: -0.3386%; T. brucei: -62.55%.
With [H][C@@]12COC[C@@H](CC(=O)N3CCCCO3)[C@]1([H])CN(S(C)(=O)=O)C2 the screen gave Toxoplasma: -0.8119%; T. brucei: -10.84%.
With Nc1cc(C(=O)N2C[C@H]3CC[C@@H]2CN(Cc2cccnc2)C3)ccn1 the screen gave LiHisRS: 5.376%; ClpP1P2: -5.677%; TcHisRS: -10.99%.
With O=C(NCCN1CCOCC1)c1scnc1Cl the screen gave Toxoplasma: 8.923%; T. brucei: 14.25%; LiHisRS: 13.16%; ClpP1P2: 1.041%; TcHisRS: 4.624%.
With Cc1c(C)n2c(SCC(=O)N3CCCC3)nnc2[nH]c1=O the screen gave Toxoplasma: -3.153%; T. brucei: -19.29%; LiHisRS: 8.602%; ClpP1P2: 13.2%; TcHisRS: 4.663%.
With CC(C)c1nn(C)c(Cl)c1CNC1CCOc2ccccc21.Cl (centres undefined) the screen gave Toxoplasma: 5.385%; T. brucei: 55.88%.
With [H][C@@]12CN(Cc3cc4ccccc4s3)C[C@]1([H])N(Cc1ccccn1)C(=O)O2 the screen gave Toxoplasma: 3.491%; T. brucei: -16.04%.
With O=C(CCCc1ccccc1)N1CCCC(n2cncn2)C1 (centres undefined) the screen gave Toxoplasma: -33.84%; T. brucei: -4.039%; LiHisRS: 12.5%; ClpP1P2: -9.63%; TcHisRS: 4.651%.
With Cn1cc(NC(=O)c2cccc(C(F)(F)F)c2)c(=O)n(C)c1=O the screen gave Toxoplasma: -1.323%; T. brucei: -28.11%; LiHisRS: 22.86%; ClpP1P2: 0.2629%; TcHisRS: 3.896%.
With CNC(=O)NC(=O)CN1CCC(c2c[nH]c3ccc(OC)cc23)CC1 the screen gave Toxoplasma: -3.744%; T. brucei: 31.28%; LiHisRS: 22.33%; ClpP1P2: 2.062%; TcHisRS: 2.905%.
With COCCN1CCC2(CCCN(Cc3ccoc3)C2)C1=O.O=C(O)C(F)(F)F (centres undefined) the screen gave Toxoplasma: 22.52%; T. brucei: -22.78%.
With Cc1nn(C)c(C)c1-c1cnc(CC2CCNC2)cn1 (centres undefined) the screen gave Toxoplasma: 6.438%; T. brucei: 0.6718%; LiHisRS: 5.369%; ClpP1P2: -14.64%; TcHisRS: 2.571%.
With O=C(c1c[nH]cn1)N1CCCn2c(CN3CCCCC3)nnc2C1 the screen gave LiHisRS: 11.5%; ClpP1P2: -0.04176%; TcHisRS: 6.452%.
With CN(C)c1cc(C2CCCN(C(=O)c3ccc(=O)[nH]n3)C2)ccn1 (centres undefined) the screen gave Toxoplasma: 7.687%; LiHisRS: 4.255%; ClpP1P2: -21.48%; TcHisRS: 3.383%.
With CS(=O)(=O)CC(=O)N1C[C@H]2CCC[C@@]2(COCc2ccncc2)C1 the screen gave LiHisRS: 5.941%; ClpP1P2: 5.185%; TcHisRS: 1.508%.
With Cc1ccc(-c2nc(CN3CCc4nn(C)c(=O)cc4C3)no2)cc1 the screen gave Toxoplasma: 0.1723%; T. brucei: -9.36%; LiHisRS: 52.38%; ClpP1P2: 1.638%; TcHisRS: 2.256%.
With Cc1nn(C)c(C)c1OCC(=O)N1CCCC1 the screen gave Toxoplasma: 4.383%; T. brucei: -60.43%; LiHisRS: 14.29%; ClpP1P2: -1.632%; TcHisRS: 6.494%.
With CCN1CCC2(CCC(=O)N2Cc2cccc(C)n2)CC1.O=C(O)C(F)(F)F.O=C(O)C(F)(F)F the screen gave Toxoplasma: 4.646%; T. brucei: 16.2%.

Some entries from above, unchanged:

* [H][C@@]12CN(Cc3cc4ccccc4s3)C[C@]1([H])N(Cc1ccccn1)C(=O)O2 | Toxoplasma: 3.491%; T. brucei: -16.04%
* COCCCN1CCCC12CCN(c1ncccn1)CC2.O=C(O)C(F)(F)F | Toxoplasma: -0.3386%; T. brucei: -62.55%